The campaign covered roughly 330,000 compounds. About 4,200 (1.3%) were called active. About 6% were inconclusive and are not listed. Calls come from the whole dose curve; as a rule, active = well fitted activation curve with a large enough effect; inconclusive = small, poorly fitted or top-dose-only effect; inactive = no such curve, though single readings can be large or run the other way. The entries are a selection whose mix differs from that of the whole data set. The source gives no active or inactive call for entries shown without one.
Experiment: qHTS screen for small molecules that induce genotoxicity in human embryonic kidney (HEK293T) cells expressing luciferase-tagged ELG1; note: nearly all actives have a fitted effect of over 60% in size; for activity change, positive = activation: % of control where 0% means no effect
Details: HEK293T ELG1-luciferase reporter, luminescence, 16 h; activity change, positive = activation: at 46 µM (top of the series)
From the text: NIH Molecular Libraries Probe Production Network [MLPCN] NIH Chemical Genomics Center [NCGC] MLPCN Grant: 1 R03 MH092164-01 Assay Provider: Kyungjae Myung, NHGRI, NIH Keywords: MLPCN, qHTS, NCGC, genotoxicity, cancer Assay Overview: Cancer cells divide rapidly compared to normal cells in the body. During cell division, cancer cells need to duplicate their genome by DNA replication. The failure of genome duplication leads to cancer cells' death. Therefore, inhibitors of DNA replication could specifically kill cancer cells. Based on this concept, many chemotherapeutic agents were developed and have been used to treat cancer patients. However, there are a limited number of agents available in the clinical setting, and some of those that do exist have low efficacy and severe side effects. Therefore, if we can find the compounds that effectively block DNA replication either by directly damaging DNA or by inhibiting other cellular mechanisms, the options for cancer treatment will be broadened. With this in mind, we developed a quantitative high-throughput ELG1-luciferase reporter gene assay. Since the level of human ELG1 protein is enhanced in response to genetic stresses, increases in luciferase activity can be used to identify compounds that cause genetic stress.
Assay Protocol Summary: For genotoxicity screening, 2,000 cells in 5 uL/well were dispensed into white, solid-bottom 1536-well plates using a solenoid-based dispenser. Following transfer of 23 nL compound or DMSO vehicle by a pin tool, the plates were incubated 16 hr at 37 °C and 5% CO2. 5 ul ONE-Glo (Promega) was then added to each plate and following a 30 min incubation at room temperature, luciferase activity was quantified on a ViewLux CCD-based plate reader.
Potency is the fitted concentration of half-maximal effect.

Structure (SMILES) | activity change, positive = activation | Potency
CC(C)CCOP(N)(=O)Oc1ccccc1Cl (centres undefined) | 13.4% | 
C#C[C@]1(O)CC[C@H]2[C@@H]3CCC4=Cc5nc6nc7ccccc7n6cc5C[C@]4(C)[C@H]3CC[C@@]21C | inactive: -23.5% | 
CCOC(=O)c1sc(=NC(=O)c2ccc(C)c(C)c2)n(C)c1C |  | active: 11.6 µM
COC(=O)[C@H]1C[C@@H]1[C@H](NP(=O)(c1ccccc1)c1ccccc1)c1ccccc1 | inactive: -0.359% | 

Source: PubChem BioAssay AID504466 (National Center for Advancing Translational Sciences (NCATS), 2011)
